Experimental data reported in patent US20140256638A1, “PEPTOID NEUTRALIZING AGENTS” (The Regents of the University of California, priority 2013, published 2014).

Assay: Isothermal Titration Calorimetry (ITC) of peptoid-heparin binding
Experimental: For Table 3, binding constants and other thermodynamic parameters were determined for the chiral 12-mer analogs by ITC. The S12mer data represents 3 trials, and the R12mer represents 2 trials. Values for the parameters Kb, AH and N are obtained by fitting the titration curves. AG is calculated from ΔG=−RTlnKb and ΔS is calculated from […].
Isothermal Titration Calorimetry (“ITC”) was used to determine directly ΔH, the binding constant and stoichiometry, and ΔS was then calculated from the binding constant and ΔH for the binding reaction between heparin and the peptoids produced in this study. In a typical ITC experiment, peptoid in buffer solution was placed in the sample cell and an equivalent quantity of the same buffer solution was placed in the reference cell. Heparin in buffer solution was placed in the titration syringe. Heparin titrant was added to the sample cell in 10 μL aliquots with 210 sec. between aliquots.
FIG. 11 presents the isotherm for the endothermic reaction. The resulting integrated titration curve is given in FIG. 12 for a reaction between 0.20 mM peptoid in the sample cell and 0.25 mM heparin in the titration syringe.

[1] = Table 3, ITC, stoichiometry from fit of titration curves, S12mer 3 trials, R12mer 2 trials

Substance | N (Table 4, ITC, stoichiometry) | N [1]
H-[N(Orn)-N(Bu)-N(Spe)]4-NH2 [s12merG] | 19.7 ± 5.7 | –
H-[N(Orn)-N(Et)-N(Spe)]3-NH2 [s9merEt] | 17 ± 0.9 | –
H-[N(Orn)-N(Me)-N(Spe)]3-NH2 [s9merMe] | 15 ± 0.4 | –
H-[N(Arg)-N(Bu)-N(Spe)]3-NH2 [s9merG] | 20 ± 3.5 | –
H-[N(Lys)-N(Bu)-N(Spe)]3-NH2 [s9merLys] | 16 ± 0.1 | –
H-[N(Arg)-N(Et)-N(Spe)]3-NH2 [s9merEtG] | 20 ± 1.4 | –
H-[N(Cad)-N(Bu)-N(Spe)]3-NH2 [s9merCad] | 21.9 ± 0.3 | –
H-[N(Orn)-N(Orn)-N(Spe)]4-NH2 [s9merOrnOrn] | 8.7 ± 0.9 | –
H-[N(Cad)G-N(Bu)-N(Spe)]3-NH2 [s9merCadG] | 20 ± 1.4 | –
H-[N(Orn)-N(Bu)-N(Spe)]2-NH2 [s6mer] | 18 ± 2.0 | –
H-[N(Arg)-N(Bu)-N(Spe)]-NH2 [s3merG] | 25 ± 2.1 | –
H-[N(Lys)G-N(Bu)-N(Spe)]3-N2 [s9merLysG] | 17 ± 3.4 | –
H-[N(Orn)-N(Pr)-N(Spe)]3-NH2 [s9merPr] | 17 ± 0.9 | –
H-[N(Orn)-N(Bu)-N(Spe)]3-NH2 [s9mer] | 18 ± 2.7 | –
H-[N(Orn)-N(Bz)-N(Spe)]3-NH2 [s9merBz] | 14 ± 0.2 | –
H-[N(Arg)-N(Bu)-N(Spe)]2-NH2 [s6merG] | 17 ± 0.7 | –
H-[N(Orn)-N(All)-N(Spe)]3-NH2 [s9merAll] | 19.3 ± 2.4 | –
H-[N(Orn)-N(Bu)-N(Spe)]4-NH2 [s12mer] | 19.5 ± 2.7 | 19.48
H-[N(Orn)-N(Bu)-N(Spe)]-NH2 [s3mer] | 25 ± 4.8 | –
H-[N(Orn)-N(Bu)-N(Rpe)]4-NH2 [r12mer] | 16 ± 0.9 | 16.26
H-[N(Arg)-N(Pr)-N(Spe)]3-NH2 [s9merPrG] | 24 ± 0.9 | –
